Measurements reported in PubChem BioAssay AID652243 (Drosophila RNAi Screening Center, 2013).

Test: 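Fly regulators of androgen-dependent reporter output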 (primary screen)
System: Drosophila S2R+ cells
Reagent: long dsRNA against Drosophila genes
Duration: 72 h (48 h, then 24 h hormone)
Treatment: synthetic androgen R1881 at 10 nM for 24 h
Read-out: 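Firefly light from an androgen-responsive reporter and Renilla control light per well, raw and unnormalised, for each of two replicates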
Scale: firefly reporter light: higher = more light from androgen-responsive reporter; Renilla control light: higher = more constitutive control signal (cell number, transfection)
Rule for the call: 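Hit when the log firefly-to-Renilla ratio dropped or increased by a fixed fold versus the mean of GFP or LacZ controls across duplicate plates; lowering cut given as 1.5 and as 3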
Calls: active = hit: reporter lowered or raised; inactive = no hit
In all, the deposit lists about 24,000 reagents; shown is a random part of those that have a named target and a result. Over the whole deposit, 246 (1%) were called active. 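Plates not normalised; calls are printed but the firefly/Renilla ratio behind them is not deposited; fold cut for lowering reported inconsistently.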 The raw values are shown without normalisation. Names joined by + are all predicted targets of the reagent. No sequences are given here. The record does not give: the amount of reagent.

target | PubChem SID | firefly reporter light, replicate 1 | firefly reporter light, replicate 2 | Renilla control light, replicate 1 | Renilla control light, replicate 2 | call
CG13794 | SID104182090 | 2.90e5 | 2.15e5 | 1.52e6 | 1.31e6 | inactive
CG13794 | SID104203965 | 1.01e6 | 9.49e5 | 9.97e5 | 1.00e6 | inactive
CG6592 | SID104190461 | 66614 | 75658 | 6.86e5 | 9.34e5 | inactive
CG7377 | SID104190622 | 2.67e5 | 1.72e5 | 2.23e6 | 1.48e6 | inactive
CG7882 | SID104184691 | 3.20e5 | 2.58e5 | 1.88e6 | 1.38e6 | inactive
SmydA-5 | SID104184659 | 2.22e5 | 1.80e5 | 1.36e6 | 1.47e6 | inactive
SmydA-5 | SID104206474 | 4.31e5 | 6.32e5 | 9.91e5 | 8.66e5 | inactive
Gat | SID104196936 | 4.05e5 | 3.20e5 | 3.03e6 | 2.05e6 | inactive
Ctr1B + Poxm | SID104196037 | 86089 | 62447 | 2.18e6 | 1.65e6 | inactive
bip1 | SID104191119 | 6.67e5 | 5.49e5 | 1.49e6 | 1.17e6 | inactive
Vdup1 | SID104188378 | 1.02e5 | 1.35e5 | 1.43e6 | 1.85e6 | inactive
plx | SID104192052 | 46996 | 39228 | 1.21e6 | 1.31e6 | inactive
plx | SID104192177 | 4.09e5 | 3.44e5 | 2.92e6 | 3.04e6 | inactive
plx | SID104202075 | 9.04e5 | 8.32e5 | 2.13e6 | 1.73e6 | inactive
plx | SID104207089 | 3.60e5 | 5.54e5 | 7.97e5 | 1.30e6 | inactive
plh | SID104192086 | 69527 | 73946 | 1.51e6 | 1.95e6 | inactive
se | SID104190505 | 1.46e5 | 1.12e5 | 1.80e6 | 1.10e6 | inactive
ND-15 | SID104180103 | 1.09e6 | 8.76e5 | 5.40e6 | 2.28e6 | inactive
CG31068 | SID104193612 | 1.45e5 | 77977 | 1.54e5 | 1.71e5 | inactive
CG31459 | SID104193172 | 1.91e5 | 2.36e5 | 3.29e5 | 4.59e5 | inactive
mRpS16 | SID104186944 | 69537 | 96352 | 1.53e6 | 1.53e6 | inactive
nej | SID104197798 | 39548 | 51840 | 1.14e6 | 1.37e6 | inactive
nej | SID104198593 | 25014 | 26439 | 3.23e5 | 3.59e5 | active
nej | SID104203633 | 7.50e5 | 5.89e5 | 7.19e5 | 7.71e5 | inactive
nej | SID104205318 | 1.05e5 | 86020 | 5.80e5 | 4.86e5 | active
Vha68-1 | SID104183262 | 3.33e5 | 2.78e5 | 2.23e6 | 2.32e6 | inactive
CG13243 | SID104181712 | 1.08e5 | 1.44e5 | 1.41e6 | 1.69e6 | inactive
Cpr67B | SID104190165 | 8.31e5 | 4.40e5 | 1.12e6 | 8.98e5 | inactive
cni | SID104183304 | 1.82e5 | 1.97e5 | 2.47e6 | 2.93e6 | inactive
CR33013 | SID104186078 | 2.09e5 | 1.42e5 | 1.34e6 | 9.66e5 | inactive
CR33013 | SID104204225 | 7.92e5 | 7.94e5 | 9.61e5 | 1.03e6 | inactive
CG4955 | SID104199719 | 1.21e5 | 1.47e5 | 4.53e5 | 6.94e5 | inactive
Cyp28d2 | SID104183091 | 91007 | 1.05e5 | 9.42e5 | 9.48e5 | inactive
Cyp28d2 | SID104206115 | 2.16e5 | 1.99e5 | 3.86e5 | 5.02e5 | inactive
RpS23 | SID104186961 | 5.92e5 | 4.53e5 | 1.56e6 | 1.80e6 | inactive
RpS23 | SID104204857 | 2.01e5 | 1.80e5 | 4.40e5 | 4.14e5 | inactive
regucalcin | SID104200158 | 3.18e5 | 3.83e5 | 2.49e6 | 3.27e6 | inactive
regucalcin | SID104204136 | 6.08e5 | 5.22e5 | 4.48e5 | 4.38e5 | inactive
E(var)3-9 | SID104202599 | 5.15e5 | 7.09e5 | 1.44e6 | 1.85e6 | inactive
E(var)3-9 | SID104208024 | 4.12e5 | 4.89e5 | 1.10e6 | 1.10e6 | inactive
ScpX | SID104183222 | 5.08e5 | 6.24e5 | 1.63e6 | 2.58e6 | inactive
Or85f | SID104196561 | 1.32e5 | 1.07e5 | 2.22e6 | 2.01e6 | inactive
Sec61gamma | SID104199362 | 2.67e5 | 2.29e5 | 1.07e6 | 6.23e5 | inactive
Sec61gamma | SID104204108 | 8.49e5 | 8.64e5 | 9.34e5 | 9.06e5 | inactive
Pld3 | SID104182959 | 9.99e5 | 1.01e6 | 2.81e6 | 2.50e6 | inactive
Wnk | SID104202713 | 9.23e5 | 1.17e6 | 8.45e5 | 8.01e5 | inactive
PGAP3 | SID104184781 | 8.24e5 | 6.44e5 | 1.67e6 | 1.88e6 | inactive
CG14562 | SID104191515 | 2.67e5 | 3.05e5 | 2.34e6 | 2.35e6 | inactive
Rpi | SID104184375 | 2.55e5 | 2.48e5 | 2.07e6 | 1.81e6 | inactive
CG10621 | SID104181870 | 1.03e5 | 1.23e5 | 1.28e6 | 1.17e6 | inactive
RpL7-like | SID104182628 | 1.47e5 | 2.14e5 | 1.84e6 | 3.23e6 | inactive
RpL7-like | SID104206858 | 3.30e5 | 5.49e5 | 1.85e6 | 2.33e6 | inactive
RpL7-like | SID104216594 | 9.45e5 | 1.03e6 | 2.13e6 | 2.45e6 | inactive
Rad17 | SID104196603 | 67498 | 84804 | 1.61e6 | 2.06e6 | active
mthl5 | SID104195947 | 2.20e5 | 1.78e5 | 3.00e6 | 2.83e6 | inactive
CG6481 | SID104199787 | 5.23e5 | 5.68e5 | 3.63e6 | 3.14e6 | inactive
CG12535 | SID104197630 | 4.51e5 | 4.25e5 | 4.82e6 | 4.06e6 | inactive
jef | SID104185990 | 66508 | 1.12e5 | 1.70e6 | 1.70e6 | inactive
jef | SID104203414 | 9.89e5 | 7.85e5 | 1.30e6 | 1.09e6 | inactive
CG7506 | SID104190652 | 7.04e5 | 4.91e5 | 2.02e6 | 1.59e6 | inactive
TotC | SID104193241 | 1.05e5 | 1.07e5 | 1.74e5 | 1.47e5 | inactive
Acer | SID104181644 | 7.11e5 | 7.00e5 | 1.97e6 | 1.62e6 | inactive
Fatp2 | SID104183763 | 7.14e5 | 7.18e5 | 2.19e6 | 1.92e6 | inactive
Fatp2 | SID104183970 | 3.76e5 | 4.19e5 | 2.67e6 | 1.89e6 | inactive
Fatp2 | SID104184122 | 3.15e5 | 3.29e5 | 2.20e6 | 1.24e6 | inactive
p120ctn | SID104187545 | 73466 | 64025 | 6.84e5 | 1.12e6 | inactive
Mmp2 | SID104186490 | 4.59e5 | 3.44e5 | 2.85e6 | 2.29e6 | inactive
Mmp2 | SID104201610 | 6.49e5 | 6.29e5 | 2.27e6 | 1.71e6 | inactive
Mmp2 | SID104204004 | 3.73e5 | 4.43e5 | 4.67e5 | 5.41e5 | inactive
rdgA | SID104197655 | 2.67e5 | 2.99e5 | 3.10e6 | 3.10e6 | inactive
rdgA | SID104197828 | 3.70e5 | 4.90e5 | 2.98e6 | 3.06e6 | inactive
rdgA | SID104198619 | 1.32e5 | 1.54e5 | 1.32e6 | 8.59e5 | inactive
rdgA | SID104203738 | 8.65e5 | 1.05e6 | 1.27e6 | 1.33e6 | inactive
rdgA | SID104205736 | 3.45e5 | 3.21e5 | 5.76e5 | 6.38e5 | inactive
rdgA | SID104214579 | – | – | – | – | inactive
rdgA | SID104216708 | 6.34e5 | 6.92e5 | 1.77e6 | 1.68e6 | active

Quoted from above, 4 entries:
target | PubChem SID | firefly reporter light, replicate 1 | firefly reporter light, replicate 2 | Renilla control light, replicate 1 | Renilla control light, replicate 2 | call
mthl5 | SID104195947 | 2.20e5 | 1.78e5 | 3.00e6 | 2.83e6 | inactive
CG6481 | SID104199787 | 5.23e5 | 5.68e5 | 3.63e6 | 3.14e6 | inactive
CG12535 | SID104197630 | 4.51e5 | 4.25e5 | 4.82e6 | 4.06e6 | inactive
jef | SID104185990 | 66508 | 1.12e5 | 1.70e6 | 1.70e6 | inactive
